{
  "source": "ChEMBL document CHEMBL6092145",
  "about": "“Recent advances in the design of small molecular drugs with acrylamides covalent warheads” (Bioorg Med Chem, 2024)",
  "molecular_target": "T1, Tyrosine-protein kinase JAK3 (Homo sapiens, UniProt P52333)",
  "T1 sequence (P52333 whole entry)": "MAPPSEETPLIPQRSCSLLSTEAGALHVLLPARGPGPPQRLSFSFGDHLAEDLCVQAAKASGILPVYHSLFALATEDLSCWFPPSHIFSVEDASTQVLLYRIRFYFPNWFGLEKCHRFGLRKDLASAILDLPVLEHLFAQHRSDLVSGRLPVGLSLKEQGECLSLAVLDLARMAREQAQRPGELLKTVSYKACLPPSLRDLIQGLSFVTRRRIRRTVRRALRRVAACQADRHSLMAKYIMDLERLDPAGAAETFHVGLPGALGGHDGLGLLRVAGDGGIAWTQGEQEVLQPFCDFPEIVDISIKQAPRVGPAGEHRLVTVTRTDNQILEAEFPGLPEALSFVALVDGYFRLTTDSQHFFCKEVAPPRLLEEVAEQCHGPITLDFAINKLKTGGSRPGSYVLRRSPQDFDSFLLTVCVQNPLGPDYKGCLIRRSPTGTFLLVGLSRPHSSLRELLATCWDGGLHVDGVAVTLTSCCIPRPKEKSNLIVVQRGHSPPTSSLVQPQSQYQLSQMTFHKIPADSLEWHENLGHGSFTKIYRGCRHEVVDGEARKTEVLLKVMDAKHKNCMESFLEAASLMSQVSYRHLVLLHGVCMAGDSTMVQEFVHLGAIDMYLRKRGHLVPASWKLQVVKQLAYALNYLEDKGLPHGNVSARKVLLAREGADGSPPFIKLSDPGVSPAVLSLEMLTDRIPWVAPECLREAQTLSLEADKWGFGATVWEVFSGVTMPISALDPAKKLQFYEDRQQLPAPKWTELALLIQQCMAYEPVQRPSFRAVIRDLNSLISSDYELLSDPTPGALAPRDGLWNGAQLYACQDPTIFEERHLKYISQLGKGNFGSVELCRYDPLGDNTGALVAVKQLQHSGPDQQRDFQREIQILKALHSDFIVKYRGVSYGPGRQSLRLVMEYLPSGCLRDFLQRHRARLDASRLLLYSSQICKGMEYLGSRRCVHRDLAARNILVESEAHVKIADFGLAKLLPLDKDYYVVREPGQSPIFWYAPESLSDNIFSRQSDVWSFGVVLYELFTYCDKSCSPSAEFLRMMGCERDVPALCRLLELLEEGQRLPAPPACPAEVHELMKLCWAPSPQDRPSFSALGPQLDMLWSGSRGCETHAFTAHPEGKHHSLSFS",
  "assay": "biochemical",
  "assay_type": "cell-based, Sf9",
  "data": [
    {"smiles": "CN(C)C(=O)/C(C#N)=C/c1ccc(-c2nc3cnc4[nH]ccc4c3n2C2CCCCC2)o1", "values": [
      {"measurement": "IC50", "value": 0.15, "unit": "nM"}
    ]}
  ]
}
